Reference: patent publication US6555528B2 (Board of Supervisors of Louisiana State University and …, priority 1999, dated 2003)
“Also recorded” adds a separate entry of the source. At least one structure is not confirmed: it was looked up by name or label, or the drawing left a doubt.

Target: T1, biotin carboxylase from Escherichia coli (Escherichia coli, UniProt P24182)
T1 construct: histidine-tag (N); made in house; host or cells: E. coli BL21(DE3)pLysS
Test: Biotin carboxylase inhibition assay (spectrophotometric, ADP production coupled to pyruvate kinase/lactate dehydrogenase)
Type: biochemical
Method: It catalyzes the first partial reaction shown above as reaction (1). […] See S. Li et al., J. Biol. Chem., vol. 267, 855-863 (1992); and H. Kondo et al., Proc. Natl. Acad. Sci. USA, vol. 88, pp. 9730-9733 (1991).
Purification was performed with a histidine-tag attached to the amino terminus of a mutant form of the enzyme and nickel affinity chromatography as described in C. […] 38, pp. 3393-3400 (1999).
The amount of ADP was determined using pyruvate kinase and lactate dehydrogenase, and the oxidation of NADH was followed at 340 nm. Each measurement was carried out in a volume of 0.5 ml in 1 cm path length quartz cuvettes. The reaction mixture contained 10 units of pyruvate kinase, 18 units of lactate dehydrogenase, 0.5 mM phosphoenolpyruvate, 0.2 mM NADH, 8 mM MgCl2 and 100 mM HEPES at pH 8.0. For inhibition studies compound 1 was dissolved in water, and the pH adjusted to 8 with HCl. The concentration of compound 1 was assayed by phosphorus analysis using the method of B. Ames et al., J. Biol. Chem., vol. 235, pp. 769-775 (1960).

## O=C(O)CCCCC1SCC2C1NC(=O)N2C(=O)CP(=O)(O)O (stereo not shown) [Compound 1, 5-(6,8-Diaza-7-oxo-6-(2-phosphonoacetyl)-3-thiabicyclo[3.3.0] Oct-2-yl) pentanoic acid]
Increasing concentrations of compound, 9 mM bicarbonate, 0.1 mM ATP, 100 mM biotin
  inhibition of the activity of biotin carboxylase: inhibits the activity; also recorded: inhibited the activity of biotin carboxylase significantly
Multiple inhibition studies
  binding together with ADP or AMP to biotin carboxylase: mutually exclusive
Versus ATP
  type of inhibition versus ATP: competitive inhibition
Versus biotin
  type of inhibition versus biotin: Noncompetitive inhibition
